Laboratory results reported in the supplement of paper PMC10849652.
The list shows a part of the results. Residues, ends and D or L forms follow the SMILES beside them. *: point of attachment. Cbz = O=C(OCc1ccccc1)*

Sequences of proteins named here, by UniProt entry; tags and fusion partners are left off. A change or cut given only in a name is not applied to a line headed by its entry.
UniProt Q9NWH9: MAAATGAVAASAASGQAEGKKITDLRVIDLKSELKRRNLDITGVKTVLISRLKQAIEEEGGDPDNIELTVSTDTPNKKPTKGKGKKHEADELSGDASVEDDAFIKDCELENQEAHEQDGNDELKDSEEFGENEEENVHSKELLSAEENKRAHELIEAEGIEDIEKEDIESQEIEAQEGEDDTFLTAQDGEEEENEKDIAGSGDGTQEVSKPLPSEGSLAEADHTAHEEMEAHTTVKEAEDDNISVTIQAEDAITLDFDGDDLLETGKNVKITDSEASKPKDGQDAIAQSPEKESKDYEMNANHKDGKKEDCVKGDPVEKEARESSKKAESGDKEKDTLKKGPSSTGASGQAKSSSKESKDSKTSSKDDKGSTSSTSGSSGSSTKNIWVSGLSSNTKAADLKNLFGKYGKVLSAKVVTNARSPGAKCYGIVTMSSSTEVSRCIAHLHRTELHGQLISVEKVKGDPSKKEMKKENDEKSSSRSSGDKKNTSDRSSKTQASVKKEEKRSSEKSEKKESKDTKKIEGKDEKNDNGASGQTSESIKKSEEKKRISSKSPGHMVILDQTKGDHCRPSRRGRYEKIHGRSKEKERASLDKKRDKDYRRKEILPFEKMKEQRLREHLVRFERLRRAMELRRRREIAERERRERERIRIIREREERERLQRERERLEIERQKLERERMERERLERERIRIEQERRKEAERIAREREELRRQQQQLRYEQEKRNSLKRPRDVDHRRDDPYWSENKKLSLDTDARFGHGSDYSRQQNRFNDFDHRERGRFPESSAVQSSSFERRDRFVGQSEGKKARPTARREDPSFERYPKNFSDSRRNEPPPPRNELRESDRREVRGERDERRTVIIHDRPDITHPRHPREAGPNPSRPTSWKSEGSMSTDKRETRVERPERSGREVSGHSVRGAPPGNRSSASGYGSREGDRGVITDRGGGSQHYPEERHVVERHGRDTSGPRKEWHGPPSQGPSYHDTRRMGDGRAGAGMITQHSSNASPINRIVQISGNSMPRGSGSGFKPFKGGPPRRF

Tests used:
Experiment in all cases: log2 fold change, soluble protein after heating vs DMSO (PISA); higher = thermal stabilisation; K562 cells, 10 uM, 30 min; active = over 0.2 and 3.5 SD of the protein, either way, in both replicates (recomputed)
erlotinib = compound: C#Cc1cccc(Nc2ncnc3cc(OCCOC)c(OCCOC)cc23)c1 [erlotinib]
How it was run: (§1)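 K562 cells at 2×10^6 cells/mL were treated with 10 μM compound for 30 min. Aliquots were heated for 3 min across 48°C-58°C, pooled, and extracted in PBS with 0.5% NP-40 at 4°C; soluble protein was the supernatant after 21,000xg for 90 min. Soluble protein was quantified by TMTpro 16plex LC-MS/MS with channel sums equalised, and reported as log2 fold change in thermal stability against DMSO controls, with values from duplicates.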

[1] = compound: C/C(=N\NC(=O)C1=CC(=CC=C1)S(=O)(=O)N2CCOCC2)/C3=C(C=CC(=C3)Cl)O
How it was run: as §1

[2] = compound: C1=CC(=C(C=C1Cl)C2=NC3=NC=CN=C3C(=N2)NC4=CC=NC=C4)F
How it was run: as §1

[3] = compound: C1=CC(=CC=C1C2=NC3=C(N2)C=C(C=C3)C(=O)N)OC4=CC=C(C=C4)Cl
How it was run: as §1

[4] = compound: C1=CC2=C(C=CC(=C2)/C=C\3/C(=O)NC(=NCC4=CC=CS4)S3)N=C1
How it was run: as §1

[5] = compound: C1=CC2=NC=CN=C2C=C1/C=C/3\C(=O)NC(=O)S3
How it was run: as §1

[6] = compound: C1=CC=C(C=C1)C2=NC(=C(N2)C3=CC=NC=C3)C4=CC(=C(C=C4)Cl)O
How it was run: as §1

[7] = compound: C1=CC=C(C=C1)[C@H](COC2=CC3=C(C=C2)NC(=O)N3)NC(=O)C4=CC=CN(C4=O)CC5=CC(=C(C=C5)F)F
How it was run: as §1

[8] = compound: C1=CC=C2C(=C1)C3=NNC4=CC=CC(=C43)C2=O
How it was run: as §1

[9] = compound: C1CCN(C1)C(=O)NC2=CC=CC(=C2)NC3=NC=C(C(=N3)NCCC4=CN=CN4)Br
How it was run: as §1

[10] = compound: C1CN(CCC1(CC2=CC=C(C=C2)Cl)N)C3=NC=NC4=C3C=CN4
How it was run: as §1

IRAK-1-4 Inhibitor I = compound: C1COCCN1CCN2C3=CC=CC=C3N=C2NC(=O)C4=CC(=CC=C4)[N+](=O)[O-] [IRAK-1-4 Inhibitor I]
How it was run: as §1

ibrutinib = compound: C=CC(=O)N1CCC[C@@H](n2nc(-c3ccc(Oc4ccccc4)cc3)c3c(N)ncnc32)C1 [ibrutinib]
How it was run: as §1

[11] = compound: CC(=O)c1cnc2ccc(-c3cc(Cl)c(O)c(Cl)c3)nc2c1N[C@H]1CC[C@H](CN(C)C)CC1
How it was run: as §1

ralimetinib = compound: CC(C)(C)Cn1c(N)nc2ccc(-c3[nH]c(C(C)(C)C)nc3-c3ccc(F)cc3)nc21 [ralimetinib]
How it was run: as §1

[12] = compound: CC(C)(O)CC(=O)NCCn1ccc2ncnc(Nc3ccc(Oc4cccc(C(F)(F)F)c4)c(Cl)c3)c21
How it was run: as §1

[13] = compound: CC(C)C1=C2N=C(C=C(N2N=C1)NCC3=CC=CC=C3)NCCCCCCN
How it was run: as §1

[14] = compound: CC(C)C[C@@H](C=O)NC(=O)[C@H](CC(C)C)NC(=O)[C@H](CC(C)C)NC(=O)OCc1ccccc1
How it was run: as §1

pinometostat = compound: CC(C)N(C[C@H]1O[C@@H](n2cnc3c(N)ncnc32)[C@H](O)[C@@H]1O)[C@H]1C[C@@H](CCc2nc3cc(C(C)(C)C)ccc3[nH]2)C1 [pinometostat]
How it was run: as §1

[15] = compound: CC1=C(C(CC(=O)N1)C2=CC=C(C=C2)C(F)(F)F)C(=O)NC3=C(C=C4C(=C3)C=NN4)F
How it was run: as §1

[16] = compound: CC1=C(C2=C(C=C1)C(=O)C3=CC=CC=C3N2CCCN)C
How it was run: as §1

[17] = compound: CC1=C(C=C(C=C1)NC(=O)C2=CC(=CC=C2)C(C)(C)C#N)NC3=CC4=C(C=C3)N=CN(C4=O)C
How it was run: as §1

[18] = compound: CC1=C(C=C(C=C1)NC(=O)C2=CC(=CC=C2)N(C)C)NC(=O)C3=CC=C(C=C3)O
How it was run: as §1

[19] = compound: CC1=C(SC2=C1C(=N[C@H](C3=NN=C(N32)C)CC(=O)N)C4=CC=C(C=C4)Cl)C
How it was run: as §1

[20] = compound: CC1=C2C(=CC=C1)N=C(N(C2=O)C3=CC=CC=C3C)CN4C=NC5=C(N=CN=C54)N
How it was run: as §1

[21] = compound: CC1=CC=C(C=C1)SC2=C3C=C(SC3=CN=C2)C(=O)N
How it was run: as §1

[22] = compound: CC1=NC(=CC=C1)C2=C(N=C(N2)C(C)(C)C)C3=CC4=NC=CN=C4C=C3
How it was run: as §1

Nexturastat A = compound: CCCCN(Cc1ccc(C(=O)NO)cc1)C(=O)Nc1ccccc1 [Nexturastat A]
How it was run: as §1

vemurafenib = compound: CCCS(=O)(=O)Nc1ccc(F)c(C(=O)c2c[nH]c3ncc(-c4ccc(Cl)cc4)cc23)c1F [vemurafenib]
How it was run: as §1

[23] = compound: CCCS(=O)(=O)Nc1ccc(F)c(C(=O)c2c[nH]c3ncc(Cl)cc23)c1F
How it was run: as §1

[24] = compound: CCCc1cc(C)[nH]c(=O)c1CNC(=O)c1cc(-c2ccnc(N3CCN(C)CC3)c2)cc2c1cnn2C(C)C
How it was run: as §1

givinostat = compound: CCN(CC)Cc1ccc2cc(COC(=O)Nc3ccc(C(=O)NO)cc3)ccc2c1 [givinostat]
How it was run: as §1

barasertib = compound: CCN(CCCOc1ccc2c(Nc3cc(CC(=O)Nc4cccc(F)c4)[nH]n3)ncnc2c1)CCOP(=O)(O)O [barasertib]
How it was run: as §1

[25] = compound: CC[C@@H]1C(=O)N(C)c2cnc(Nc3ccc(C(=O)NC4CCN(C)CC4)cc3OC)nc2N1C1CCCC1
How it was run: as §1

volasertib = compound: CC[C@@H]1C(=O)N(C)c2cnc(Nc3ccc(C(=O)N[C@H]4CC[C@H](N5CCN(CC6CC6)CC5)CC4)cc3OC)nc2N1C(C)C [volasertib]
How it was run: as §1

[26] = compound: CC[C@H](C)N1C=C(C2=C(C=C(C=C21)C3=CN=C(C=C3)N4CCNCC4)C(=O)NCC5=C(C=C(NC5=O)C)C)C
How it was run: as §1

epoxomicin = compound: CC[C@H](C)[C@@H](C(=O)N[C@@H]([C@@H](C)O)C(=O)N[C@@H](CC(C)C)C(=O)[C@]1(CO1)C)NC(=O)[C@H]([C@@H](C)CC)N(C)C(=O)C [epoxomicin]
How it was run: as §1

[27] = compound: CCn1c(C(=O)N(C2CC2)C2CC2)cc2c3c(ncn3C)c(Nc3cc(C)n(C)n3)nc21
How it was run: as §1

[28] = compound: CCn1cc(-c2ccnc3[nH]c(-c4cccc(CN(C)C)c4)cc23)c(-c2ccc(NC(=O)N(C)C)cc2)n1
How it was run: as §1

[29] = compound: CN(C)CC(=O)Nc1ccc2[nH]c(=O)c3ccccc3c2c1
How it was run: as §1

rosiglitazone = compound: CN(CCOC1=CC=C(C=C1)C[C@H]2C(=O)NC(=O)S2)C3=CC=CC=N3 (racemic) [rosiglitazone]
How it was run: as §1

[30] = compound: CN1C2=C(C3=C1C(=O)N(N=C3)CC4=CC(=CC=C4)N)SC(=C2)S(=O)C
How it was run: as §1

[31] = compound: CN1CCC(CNc2ccc3ncc(-c4cccc(OC(F)(F)F)c4)n3n2)CC1
How it was run: as §1

saracatinib = compound: CN1CCN(CCOc2cc(OC3CCOCC3)c3c(Nc4c(Cl)ccc5c4OCO5)ncnc3c2)CC1 [saracatinib]
How it was run: as §1

sotrastaurin = compound: CN1CCN(c2nc(C3=C(c4c[nH]c5ccccc45)C(=O)NC3=O)c3ccccc3n2)CC1 [sotrastaurin]
How it was run: as §1

alvocidib = compound: CN1CC[C@H](c2c(O)cc(O)c3c(=O)cc(-c4ccccc4Cl)oc23)[C@H](O)C1 [alvocidib]
How it was run: as §1

Tubastatin A = compound: CN1CCc2c(c3ccccc3n2Cc2ccc(C(=O)NO)cc2)C1 [Tubastatin A]
How it was run: as §1

[32] = compound: CNC(=O)C1=CC=CC=C1NC2=NC(=NC=C2Cl)NC3=C(C=C(C=C3)N4CCOCC4)OC
How it was run: as §1

Measured: log2 fold change

SLTM (UniProt Q9NWH9)
inactive: erlotinib 0.005 | [1] -0.064 | [2] -0.425 | [3] -0.041 | [4] -0.077 | [5] -0.037 | [6] -0.247 | [7] 0.118 | [8] -0.013 | [9] -0.075 | [10] -0.002 | IRAK-1-4 Inhibitor I -0.072 | ibrutinib 0.109 | [11] 0.092 | ralimetinib 0.069 | [12] 0.139 | [13] 0.145 | [14] 0.115 | pinometostat 0.121 | [15] 0.009 | [16] -0.233 | [17] 0.007 | [18] -0.028 | [19] -0.315 | [20] -0.082 | [21] -0.07 | [22] -0.103 | Nexturastat A 0.269 | vemurafenib -0.076 | [23] -0.076 | [24] 0.043 | givinostat -0.029 | barasertib -0.152 | [25] 0.176 | volasertib 0.068 | [26] 0.008 | epoxomicin -0.25 | [27] 0.036 | [28] 0.177 | [29] -0.083 | rosiglitazone -0.131 | [30] 0.242 | [31] 0.252 | saracatinib 0.004 | sotrastaurin 0.064 | alvocidib 0.274 | Tubastatin A 0.125 | [32] -0.019
